PubChem BioAssay AID1259254, NCATS, 2017
Aim: 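Genome-wide screen for genes that prevent DNA re-replication in cancer cells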 (primary screen). Cell system: human HCT116 colorectal cancer cells. Knock-down reagent: single siRNA against human genes. Duration: 3 days. Detection: 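Imaged Hoechst DNA stain sorts each cell into a cycle phase by DNA amount; per plate, G2 fraction set to 0% for non-targeting and 100% for GMNN siRNA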. Scale: G2 robust z-score: higher = more G2 cells, more excess DNA replication. Call rule: 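Active siRNAs have a G2 robust z of 5 or more median absolute deviations over the median, which in these data means about 38% or higher of GMNN control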.
The whole screen tested about 59,000 reagents; shown is a random part of them. Over the whole deposit, about 1,550 (2.6%) got an active call. 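G2 share is only a proxy for re-replication; each gene was hit by three separate siRNAs, and active genes were retested.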 A number with no mark means an inactive call. The numbers tell different reagents against one gene apart. Not all columns of the deposit are shown. The record does not give: the amount of reagent.

| target | reagent no. | G2 robust z-score |
| --- | --- | --- |
| METTL3 | 1 | -0.673 |
| METTL3 | 2 | -0.607 |
| METTL3 | 3 | 2.91 |
| FRG1-DT (FRG1 divergent transcript) | 1 | 1.39 |
| FRG1-DT (FRG1 divergent transcript) | 2 | -0.983 |
| FRG1-DT (FRG1 divergent transcript) | 3 | -0.0573 |
| IL10RA (interleukin 10 receptor subunit alpha) | 1 | 1.04 |
| IL10RA (interleukin 10 receptor subunit alpha) | 2 | 0.631 |
| IL10RA (interleukin 10 receptor subunit alpha) | 3 | 2.16 |
| CABP4 (calcium binding protein 4) | 1 | 0.285 |
| CABP4 (calcium binding protein 4) | 2 | 0.138 |
| CABP4 (calcium binding protein 4) | 3 | -0.417 |
| SPINT1 (serine peptidase inhibitor, Kunitz type 1) | 1 | 1.38 |
| SPINT1 (serine peptidase inhibitor, Kunitz type 1) | 2 | -1.2 |
| SPINT1 (serine peptidase inhibitor, Kunitz type 1) | 3 | -0.59 |
| CCKBR (cholecystokinin B receptor) | 1 | -1.32 |
| CCKBR (cholecystokinin B receptor) | 2 | -0.568 |
| CCKBR (cholecystokinin B receptor) | 3 | -0.3 |

Not a retest: entries from further up.
| target | reagent no. | G2 robust z-score |
| --- | --- | --- |
| SPINT1 (serine peptidase inhibitor, Kunitz type 1) | 1 | 1.38 |
| SPINT1 (serine peptidase inhibitor, Kunitz type 1) | 2 | -1.2 |
| SPINT1 (serine peptidase inhibitor, Kunitz type 1) | 3 | -0.59 |
| CCKBR (cholecystokinin B receptor) | 1 | -1.32 |

Continued:
| target | reagent no. | G2 robust z-score |
| --- | --- | --- |
| CAMK4 (calcium/calmodulin dependent protein kinase IV) | 1 | -0.548 |
| CAMK4 (calcium/calmodulin dependent protein kinase IV) | 2 | -0.363 |
| CAMK4 (calcium/calmodulin dependent protein kinase IV) | 3 | -0.467 |
| ZBTB11 (zinc finger and BTB domain containing 11) | 1 | -0.664 |
| ZBTB11 (zinc finger and BTB domain containing 11) | 2 | 4.13 |
| ZBTB11 (zinc finger and BTB domain containing 11) | 3 | -0.585 |
| LIG4 (DNA ligase 4) | 1 | 0.867 |
| LIG4 (DNA ligase 4) | 2 | -0.253 |
| LIG4 (DNA ligase 4) | 3 | -0.998 |
| SEC22C (SEC22 homolog C, vesicle trafficking protein) | 1 | -0.263 |
| SEC22C (SEC22 homolog C, vesicle trafficking protein) | 2 | 1.35 |
| SEC22C (SEC22 homolog C, vesicle trafficking protein) | 3 | -0.145 |
